According to patent publication US7723363B2, “2-pyridinylethylcarboxamide derivatives and their use as fungicides” (Bayer Cropscience SA, priority 2004, dated 2010):
Some entries share one result that the patent states for a list of compounds.

Test system: Pyrenophora teres
Experiment: In vivo test on Pyrenophora teres (barley net blotch)
Conditions: dose of 330 ppm; barley plants, preventive spray, grading 12 days after contamination vs control plants

With `CC(CNC(=O)c1cn(C)nc1C(F)(F)F)c1ccc(Cl)cn1` (stereo not shown) [Compound C2, N-[2-(5-chloro-2-pyridinyl)propyl]-1-methyl-3-(trifluoromethyl)-1H-pyrazole-4-carboxamide] the “protection (good (at least 50%) or total)” value was “at least 50%”.
